Assay results reported in PMC9952136 (Antibiotics, 2023).

Experiment: Pharmacokinetic studies of ENR and SAL in broilers (plasma, non-compartmental);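 note: plasma drug levels measured by HPLC or LC-MS/MS, with PK parameters obtained through non-compartmental analysis in WinNonlin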
Settings: AA broiler, po, 7.5 mg/kg, n=6, Mean ± SD; for AUC(0-t): AUC0-24h; for AUC(0-inf): AUC0-∞
[1] = SAL (5 d) + ENR: SAL 60 mg/kg mixed feeding 5 days, then ENR 7.5 mg/kg gavage
[2] = SAL + ENR: ENR 7.5 mg/kg + SAL 6.0 mg/kg co-gavage

AUC(0-t) (ENR (7.5 mg/kg) gavage alone): 540 ± 180 ng·h/mL | AUC(0-t) [1]: 1220 ± 160 ng·h/mL | AUC(0-t) [2]: 1290 ± 150 ng·h/mL | AUC(0-inf) (ENR (7.5 mg/kg) gavage alone): 670 ± 210 ng·h/mL | AUC(0-inf) [1]: 1570 ± 130 ng·h/mL | AUC(0-inf) [2]: 1840 ± 320 ng·h/mL | Cmax (ENR (7.5 mg/kg) gavage alone): 80 ± 30 ng/mL | Cmax [1]: 110 ± 20 ng/mL | Cmax [2]: 100 ± 30 ng/mL | Tmax (ENR (7.5 mg/kg) gavage alone): 3.33 ± 1.03 h | Tmax [1]: 3 ± 1.1 h | Tmax [2]: 3.2 ± 1.1 h
SMILES: O=C(O)c1cn(C2CC2)c2cc(N3CCNCC3)c(F)cc2c1=O [CIP, ciprofloxacin]
